Data as given in publication PMC8927676.
No constants are given. Whether binding was seen depends on the method and setting. In cells and extracts the contact can be indirect. A yes stands for co-enrichment or nearness to the bait. Other partners may have been found.

Sequences of proteins named here, by UniProt entry; tags and fusion partners are left off. A change or cut given only in a name is not applied to a line headed by its entry.
UniProt P00367: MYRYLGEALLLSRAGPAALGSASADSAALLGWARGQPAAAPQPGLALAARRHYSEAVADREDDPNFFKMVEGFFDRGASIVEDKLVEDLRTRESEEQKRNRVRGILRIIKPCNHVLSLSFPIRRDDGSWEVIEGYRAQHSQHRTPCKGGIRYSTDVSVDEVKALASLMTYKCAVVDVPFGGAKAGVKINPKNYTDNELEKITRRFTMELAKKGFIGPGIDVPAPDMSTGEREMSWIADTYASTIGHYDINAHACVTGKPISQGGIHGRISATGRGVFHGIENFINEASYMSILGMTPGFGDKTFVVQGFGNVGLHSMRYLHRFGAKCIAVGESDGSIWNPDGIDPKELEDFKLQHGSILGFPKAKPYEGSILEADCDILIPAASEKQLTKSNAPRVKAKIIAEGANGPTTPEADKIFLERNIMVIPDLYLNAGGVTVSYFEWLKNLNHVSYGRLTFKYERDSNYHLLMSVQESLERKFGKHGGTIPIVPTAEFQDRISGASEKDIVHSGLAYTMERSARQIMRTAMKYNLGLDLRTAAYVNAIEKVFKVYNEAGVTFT

Molecular target: T1, Thymidine kinase 1 (human (all cell lines of the paper are human; the line used for the IP is not stated)) (UniProt P04183)
T1 sequence: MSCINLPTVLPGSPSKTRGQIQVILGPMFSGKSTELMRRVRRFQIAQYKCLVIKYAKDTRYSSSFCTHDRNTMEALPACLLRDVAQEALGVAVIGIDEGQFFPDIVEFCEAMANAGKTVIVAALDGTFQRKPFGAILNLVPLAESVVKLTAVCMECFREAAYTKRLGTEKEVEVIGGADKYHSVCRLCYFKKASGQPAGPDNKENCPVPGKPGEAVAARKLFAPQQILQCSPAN
Assay: affinity purification with mass spectrometry; TK1 as bait; cells lysed in IP lysis buffer (20 mM Tris-HCl pH 7.4, 150 mM NaCl, 1 mM EDTA, 1% NP-40), supernatant with Protein G Sepharose beads and antibody overnight at 4°C, washes with 300 mM and 150 mM NaCl; SDS-PAGE, LC-MS/MS (Q Exactive HF, MaxQuant)

binding: binds
Substance: glutamate dehydrogenase (from UniProt P00367) (enzyme)
